Experimental data reported in patent US6365598B1, “Pyrroloquinolines for treatment of obesity” (Vernalis Research Limited, priority 1998, dated 2002).
Some of these results come from one statement about several compounds together.

System: 5HT2C Syndrome in rats
Assay: In vivo efficacy: 5-HT2C syndrome in rats
Settings: 10 mg/kg s.c.

SMILES	time for which significant pharmacological efficacy (5-HT2C syndrome) is maintained
C[C@H](N)Cn1ccc2ccc3ncccc3c21 [Example 1, (S)-1-(1H-Pyrrolo[2,3-f]quinolin-1-yl)-2-propylamine]	at least 180 minutes
C[C@@H](N)Cn1ccc2ccc3ncccc3c21 [Example 2, (R)-1-(1H-Pyrrolo[2,3-f]quinolin-1-yl)-2-propylamine]	at least 180 minutes
